Literature values in paper PMC4620497 (Scientific Reports, 2015).

tested on: kinases screened; parameters: method as in ref 18; Karaman MW, et al. 2008; details: number of target hits/number of kinases screened; Karaman MW, et al. 2008; cited from earlier work

First: CC(C)(C)c1cc(NC(=O)Nc2ccc(-c3cn4c(n3)sc3cc(OCCN5CCOCC5)ccc34)cc2)no1 [AC220, reference compound]
Second: COc1cc2ncnc(Nc3ccc(F)c(Cl)c3)c2cc1OCCCN1CCOCC1 [Gefitinib]
The “S(100nM)” value of the first is higher: 0.028 for the first, 0.007 for the second.

Compared with C[C@]12O[C@H](C[C@]1(O)CO)n1c3ccccc3c3c4c(c5c6ccccc6n2c5c31)CNC4=O [CEP-701], Cc1ccc(NC(=O)c2ccc(CN3CCN(C)CC3)cc2)cc1Nc1nccc(-c2cccnc2)n1 [Imatinib] is lower in “S(100nM)” value: 0.46 for the first, 0.031 for the second.

Going from Cc1nc(Nc2ncc(C(=O)Nc3c(C)cccc3Cl)s2)cc(N2CCN(CCO)CC2)n1 [Dasatinib] to COc1cc2c(N3CCN(C(=O)Nc4ccc(OC(C)C)cc4)CC3)ncnc2cc1OCCCN1CCCCC1 [MLN-518], the “S(100nM)” value falls from 0.159 to 0.014.

Going from C#Cc1cccc(Nc2ncnc3cc(OCCOC)c(OCCOC)cc23)c1 [Erlotinib] to CS(=O)(=O)CCNCc1ccc(-c2ccc3ncnc(Nc4ccc(OCc5cccc(F)c5)c(Cl)c4)c3c2)o1 [Lapatinib], the “S(100nM)” value falls from 0.014 to 0.010.

Going from CNC(=O)c1cc(Oc2ccc(NC(=O)Nc3ccc(Cl)c(C(F)(F)F)c3)cc2)ccn1 [Sorafenib] to CCN(CC)CCNC(=O)c1c(C)[nH]c(/C=C2\C(=O)Nc3ccc(F)cc32)c1C [Sunitinib], the “S(100nM)” value rises from 0.045 to 0.19.

Compared with CC(C)(C)c1cc(NC(=O)Nc2ccc(-c3cn4c(n3)sc3cc(OCCN5CCOCC5)ccc34)cc2)no1 [AC220, reference compound], COc1cc2ncnc(Nc3ccc(F)c(Cl)c3)c2cc1OCCCN1CCOCC1 [Gefitinib] is higher in “S(3μM)” value: 0.067 for the first, 0.072 for the second.

Going from C[C@]12O[C@H](C[C@]1(O)CO)n1c3ccccc3c3c4c(c5c6ccccc6n2c5c31)CNC4=O [CEP-701] to Cc1ccc(NC(=O)c2ccc(CN3CCN(C)CC3)cc2)cc1Nc1nccc(-c2cccnc2)n1 [Imatinib], the “S(3μM)” value falls from 0.81 to 0.066.

Going from Cc1nc(Nc2ncc(C(=O)Nc3c(C)cccc3Cl)s2)cc(N2CCN(CCO)CC2)n1 [Dasatinib] to COc1cc2c(N3CCN(C(=O)Nc4ccc(OC(C)C)cc4)CC3)ncnc2cc1OCCCN1CCCCC1 [MLN-518], the “S(3μM)” value falls from 0.283 to 0.056.

Compared with C#Cc1cccc(Nc2ncnc3cc(OCCOC)c(OCCOC)cc23)c1 [Erlotinib], CS(=O)(=O)CCNCc1ccc(-c2ccc3ncnc(Nc4ccc(OCc5cccc(F)c5)c(Cl)c4)c3c2)o1 [Lapatinib] is lower in “S(3μM)” value: 0.152 for the first, 0.010 for the second.

For CNC(=O)c1cc(Oc2ccc(NC(=O)Nc3ccc(Cl)c(C(F)(F)F)c3)cc2)ccn1 [Sorafenib], the “S(3μM)” value is listed as 0.18.
